PMC10398996
Residue numbers refer to the chain shown, from its start. Numbers in names are those of the source. Results are given in words; binding and its absence hold for the method and conditions named. For part of these data: Binding seen in cells or lysates may run through a third protein. Some entries that bind do so weakly or less than the wild type. For part of these data: Tags and fused reporters may be left off the sequences shown. Blank lines part the entries; values can stand above or below the molecule they belong to.

Experiments:
[1] = molecular target: APLP2 WT, C-terminally HA tagged or c-myc tagged (UniProt Q06481); test: condition: only denaturing SDS-PAGE, sample buffer without DTT; cross-linking; disulfide bridges through introduced cysteines; N2a lysates in sample buffer without DTT, denaturing SDS-PAGE, Western blot with α-HA
APLP2 S692C, HA tagged = APLP2 S692C, HA tagged (UniProt Q06481); test: cross-linking; disulfide bridges through introduced cysteines; N2a lysates in sample buffer without DTT, denaturing SDS-PAGE, Western blot with α-HA
APLP2 L690C, HA tagged = APLP2 L690C, HA tagged (UniProt Q06481); test: as above
[2] = molecular target: endogenous mouse APLP2 (mouse (endogenous in C57BL/6 cortex and mouse cells)) (UniProt Q06335); test: native gel or EMSA; Blue Native PAGE, semi-denaturing conditions, of mouse primary cortical neurons at DIV5 and DIV19; Western blot with Y188, 57 or D2-II
APLP1 R579C, HA tagged = APLP1 R579C, HA tagged (UniProt P51693); test: cross-linking; disulfide bridges through introduced cysteines; N2a lysates in sample buffer without DTT, denaturing SDS-PAGE, Western blot with α-HA
APLP1 E580C, HA tagged = APLP1 E580C, HA tagged (UniProt P51693); test: as above
[3] = molecular target: APLP1 WT, C-terminally HA tagged or c-myc tagged (UniProt P51693); test: co-IP; trans: HA and c-myc tagged copies transfected into N2a cells in separate dishes, cells combined 4 h post-transfection and co-cultivated; lysis in 1% NP40 buffer; α-HA antibody beads; blot with α-c-myc
[4] = molecular target: APLP1 WT, C-terminally HA tagged or c-myc tagged (UniProt P51693); test: condition: only denaturing SDS-PAGE, sample buffer without DTT; cross-linking; disulfide bridges through introduced cysteines; N2a lysates in sample buffer without DTT, denaturing SDS-PAGE, Western blot with α-HA
[5] = molecular target: APLP1 WT, C-terminally HA tagged or c-myc tagged (UniProt P51693); test: cross-linking; disulfide bridges through introduced cysteines; N2a lysates in sample buffer without DTT, denaturing SDS-PAGE, Western blot with α-HA
[6] = molecular target: APLP1 WT, C-terminally HA tagged or c-myc tagged (UniProt P51693); test: co-IP; cis: HA and c-myc tagged copies co-expressed in the same N2a cells; lysis in 50 mM Tris/HCl pH 7.5, 150 mM NaCl, 5 mM EDTA, 1% NP40; α-HA antibody beads; blot with α-c-myc
[7] = molecular target: T1, endogenous mouse APLP2 (mouse (endogenous in C57BL/6 cortex and mouse cells)), Q06335; test: native gel or EMSA; Blue Native PAGE of the post nuclear fraction (PNF) and concentrated synaptosomes (Syn H-co) of mouse brain, no Triton X-100; Western blot with Y188, 57 or D2-II; details: remark: other sources report otherwise
T1 chain: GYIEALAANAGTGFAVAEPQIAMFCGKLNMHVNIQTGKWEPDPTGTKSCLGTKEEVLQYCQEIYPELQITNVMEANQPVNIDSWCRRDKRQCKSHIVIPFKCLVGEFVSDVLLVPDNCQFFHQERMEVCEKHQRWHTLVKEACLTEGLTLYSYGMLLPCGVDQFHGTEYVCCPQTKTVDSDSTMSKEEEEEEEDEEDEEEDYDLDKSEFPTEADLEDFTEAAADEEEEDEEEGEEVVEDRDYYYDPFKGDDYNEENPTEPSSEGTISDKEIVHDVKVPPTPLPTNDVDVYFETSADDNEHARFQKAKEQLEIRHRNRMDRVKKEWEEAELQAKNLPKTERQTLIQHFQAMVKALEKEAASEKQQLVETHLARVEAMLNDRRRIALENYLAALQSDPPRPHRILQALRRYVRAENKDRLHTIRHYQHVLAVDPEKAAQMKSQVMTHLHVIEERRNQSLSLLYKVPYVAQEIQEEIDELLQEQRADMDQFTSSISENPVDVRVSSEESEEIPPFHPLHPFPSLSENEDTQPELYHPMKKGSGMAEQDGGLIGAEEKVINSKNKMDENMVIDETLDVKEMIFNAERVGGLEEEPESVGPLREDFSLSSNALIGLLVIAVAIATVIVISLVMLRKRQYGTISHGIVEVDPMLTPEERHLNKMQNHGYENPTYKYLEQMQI

[8] = molecular target: T1, endogenous mouse APLP2 (mouse …); test: native gel or EMSA; Blue Native PAGE, semi-denaturing conditions, of lysates of mouse primary cortical astrocytes and of untransfected N2a cells (endogenous proteins); Western blot with Y188, 57 or D2-II; details: remark: other sources report otherwise

Molecule: APLP2 WT, C-terminally HA tagged or c-myc tagged (from UniProt Q06481 32-763)
binding [1]: no binding

Molecule: endogenous mouse APLP2 (from UniProt Q06335 32-707)
binding [2]: binds weakly

B2: APLP1 E580C, HA tagged (protein, UniProt P51693 39-650)
chain: SLAGGSPGAAEAPGSAQVAGLCGRLTLHRDLRTGRWEPDPQRSRRCLRDPQRVLEYCRQMYPELQIARVEQATQAIPMERWCGGSRSGSCAHPHHQVVPFRCLPGEFVSEALLVPEGCRFLHQERMDQCESSTRRHQEAQEACSSQGLILHGSGMLLPCGSDRFRGVEYVCCPPPGTPDPSGTAVGDPSTRSWPPGSRVEGAEDEEEEESFPQPVDDYFVEPPQAEEEEETVPPPSSHTLAVVGKVTPTPRPTDGVDIYFGMPGEISEHEGFLRAKMDLEERRMRQINEVMREWAMADNQSKNLPKADRQALNEHFQSILQTLEEQVSGERQRLVETHATRVIALINDQRRAALEGFLAALQADPPQAERVLLALRRYLRAEQKEQRHTLRHYQHVAAVDPEKAQQMRFQVHTHLQVIEERVNQSLGLLDQNPHLAQELRPQIQELLHSEHLGPSELEAPAPGGSSEDKGGLQPPDSKDDTPMTLPKGSTEQDAASPEKEKMNPLEQYERKVNASVPRGFPFHSSEIQRDELAPAGTGVSRCAVSGLLIMGAGGGSLIVLSMLLLRRKKPYGAISHGVVEVDPMLTLEEQQLRELQRHGYENPTYRFLEERP
binding (APLP1 E580C, HA tagged): binds

B4: endogenous mouse APLP2, Q06335 32-707 (natural protein)
chain: T1 chain
binding [7]: binds | binding [8]: binds

Further lines, results first:

binding (APLP2 S692C, HA tagged): binds
Molecule: APLP2 S692C, HA tagged (from UniProt Q06481 32-763)

binding (APLP2 L690C, HA tagged): binds
Molecule: APLP2 L690C, HA tagged (from UniProt Q06481 32-763)

binding (APLP1 R579C, HA tagged): binds
B1: APLP1 R579C, HA tagged (protein, UniProt P51693 39-650)
chain: B2 chain with R541C, C542E

binding [3]: binds | binding [4]: no binding | binding [5]: binds weakly | binding [6]: binds
B3: APLP1 WT, C-terminally HA tagged or c-myc tagged (protein, UniProt P51693 39-650)
chain: B2 chain with C542E
